Assay results: patent US20250340649A1 (RUTGERS THE STATE UNIVERSITY OF NEW JERSEY, published 2025)
These are yes or no findings as the source states them, for the method shown. Some entries that bind do so weakly or less than the wild type.

Protein sequences, listed by entry. Tags and fused reporters are not part of them. Lines headed by an entry give the natural chain unless they say otherwise; changes in a name come on top. Chains listed by the source or under a name are the forms on record and can include a tag or linker.
Biotinylated Human Fc gamma RIIIB/CD16b (NA1) Protein, His, Avitag (Acrobiosystems CDB-H82E4) (O75015, form named): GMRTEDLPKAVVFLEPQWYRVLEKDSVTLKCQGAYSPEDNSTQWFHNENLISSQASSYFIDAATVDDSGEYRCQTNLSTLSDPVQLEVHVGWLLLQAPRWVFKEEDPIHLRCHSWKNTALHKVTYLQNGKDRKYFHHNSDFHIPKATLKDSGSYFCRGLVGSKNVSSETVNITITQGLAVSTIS

Biological target: Biotinylated Human Fc gamma RIIIB/CD16b (NA1) Protein, His, Avitag (Acrobiosystems CDB-H82E4) (human) (UniProt O75015)
Assay: BLI (Octet), biotinylated antigen on streptavidin sensor

B1: E5C1 BiKE (BiKE: HER2/CD16a) (bispecific antibody)
chain: QVQLQESGGGLVQAGGSLRLDCAASGRTLSSYVVGWFRQAPGKEREVVAAIGWSRTSTFYTDSVKGRFTISRDNTENTVYLQMNSLKPGDTAVYYCAADSSPRRWDRESDFGSWGQGTQVTVSSPSGQAGAAASESLFVSNHASQVQLQESGGGLVQAGGSLRLSCAASGRTFRLYRMGWFRQAPGKEREFVGSIKMIDGSTLYGDPVKGRFTISRDNTKFMAYLQMNSLKPEDTAVYYCASVSRVTGSYDSWGQGTQVTVSSWELQGSEQKLISEEDLHHHHHHHHHHHH
notes: Monomer by LC-MS; also called BIKE: CD16a/HER2
Question: B1 was tested. Which binding did it give?
Answer: binds
